# From PubChem BioAssay AID493014 (National Center for Advancing Translational Sciences (NCATS), 2011)
# The other results are listed elsewhere or left out. The main result of the screen is listed elsewhere. These columns were measured beside it and carry no call. Most of these compounds were active or inconclusive in the main read-out, so they are no random draw. Potencies come from curve fits of mixed quality, noted in brackets.
# Experiment: qHTS Assay to Find Inhibitors of Chronic Active B-Cell Receptor Signaling
# Conditions: ABC-DLBCL IkBa-CBG/CBR reporter, luminescence ratio (green luciferase fused to IkBa over red control in TMD8 lymphoma cells), 4 h
# Outline: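 TMD8 ABC-DLBCL cells carrying doxycycline-inducible green luciferase fused to IkappaBalpha plus unfused red luciferase were exposed to compounds (up to 46 uM) for 4 hrs at 37C. Activity came from the overlap-corrected green/red luminescence ratio.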
# [1] = measured here: CBR red luminescence, cell number
# [2] = measured here: IkBa-CBG green luminescence
SMILES,AC50 [1],AC50 [2]
COc1cc(NC(=O)COc2ccc(F)cc2)nc(OC)n1,"2.82 µM [rising, partial curve, poor fit]",–
Cc1nc(Nc2ccccc2)c2oc3ccc(Cl)cc3c2n1,"8.91 µM [falling, partial curve]",–
Cc1cc(NC(=O)COC(=O)c2ccccc2S(=O)(=O)N(C)c2ccccc2)no1,"2.82 µM [falling, partial curve, poor fit]",–
O=C(CSc1nc2ccccc2[nH]1)N1CCCCC1,"0.146 µM [rising, full curve]",–
Cc1cc(C)c(C)c(S(=O)(=O)N2CCN(C(=O)C3CSC4(C)CCC(=O)N34)CC2)c1C (stereo unspecified),"29.1 µM [rising, single point]",–
CCCc1nnc(NC(=O)CCC(=O)NC2CCCC2)s1,"0.708 µM [rising, full curve, poor fit]",–
CC(C)(C)NC(=O)C(=O)NNC(=O)c1ccccc1,"0.891 µM [rising, full curve, poor fit]",–
COc1ccc(OC)c(C(=O)CSc2nnnn2C)c1,"5.62 µM [falling, partial curve, poor fit]",–
CCOc1ccccc1Nc1nnc(-c2cc3cc(OC)ccc3oc2=O)s1,"2.24 µM [falling, partial curve, poor fit]",–
Fc1cccc(Cc2noc(CN3CCCN(C4Cc5ccccc5C4)CC3)n2)c1,"35.5 µM [falling, single point]",–
O=C(NCc1ccc[n+](CCCCS(=O)(=O)[O-])c1)c1ccc(OC(F)F)cc1,"12.6 µM [rising, partial curve, poor fit]",–
COc1ccccc1-c1nn2c(C3COc4ccccc4O3)nnc2s1 (stereo unspecified),"1.26 µM [rising, partial curve]",–
COc1cc(C(=O)NC(=S)Nc2ccccc2[N+](=O)[O-])cc(OC)c1OC,"0.631 µM [rising, partial curve, poor fit]",–
O=C(CC(SCCO)c1ccc(F)cc1)c1ccco1 (stereo unspecified),"17.8 µM [falling, single point]",–
CCCCn1c(-c2csc(CC)c2)n[nH]c1=S,"20.6 µM [rising, single point]",–
COc1ccc(CCC(C)Nc2ccccc2F)cc1 (stereo unspecified),"16.4 µM [rising, single point]",–
CCc1nc(OCCN(C)C)c2oc3ccccc3c2n1,"35.5 µM [falling, single point]",–
COc1ccc(N(CC(=O)Nc2cc(C)on2)S(=O)(=O)c2cc(C)ccc2C)cc1,"28.2 µM [falling, partial curve, poor fit]",–
NC(=O)c1ncc(C(F)(F)F)cc1Oc1ccc(C(F)(F)F)cc1,"0.517 µM [falling, full curve, poor fit]",–
COc1cc(C)ccc1OCCOc1ccccc1Cl,"3.55 µM [rising, partial curve]",–
O=C(CC(c1ccco1)S(=O)(=O)c1ccccc1)c1ccccc1 (stereo unspecified),"11.2 µM [falling, single point]",–
O=C(CCc1nnc2n(Cc3ccc(F)cc3)c(=O)c3ccccc3n12)NCCN1CCOCC1,"17.8 µM [falling, partial curve]",–

SMILES,AC50 [1],AC50 [2]
Cc1ccc(CCC(=O)Nc2ccc(N(C)C)cc2)o1,"14.1 µM [falling, partial curve, poor fit]",–
Cc1cc(C)cc(NS(=O)(=O)c2ccc3[nH]cc(C(=O)N4CCc5ccccc54)c(=O)c3c2)c1,–,"29.1 µM [falling, single point]"
Cc1ccc(/C=N/NC(=O)CSc2nc3ccccc3n2Cc2ccc(Cl)cc2)o1,"20.6 µM [falling, partial curve]",–
O=C(CCC1CCCCC1)NCc1cccnc1,"3.16 µM [falling, single point]",–
COc1ccc(NC(=O)Nc2cccc(F)c2)c(OC)c1,"35.5 µM [falling, single point]",–
CCOC(=O)c1sc(N(Cc2ccccc2)C(=O)COC(=O)c2cnccn2)nc1C,"6.31 µM [rising, single point]",–
COCCCNc1nc2c(-c3cccc(C)c3)nnn2c2ccc(Cl)cc12,"0.891 µM [falling, partial curve]",–
O=C(CN1c2cccc3cccc(c23)S1(=O)=O)Nc1ccc(S(=O)(=O)N2CCOCC2)cc1,"4.11 µM [rising, partial curve]",–
CCOC(=O)C1(CCOc2ccccc2)CCN(Cc2ccc(C#CCCO)cc2)CC1,"35.5 µM [falling, single point]",–
CCCCN(C(=O)c1ccc(C#N)cc1)c1c(N)n(CCC)c(=O)[nH]c1=O,"1.12 µM [falling, full curve, poor fit]",–
Cc1ccc(-n2nnnc2SCC(=O)N2CC(=O)Nc3ccccc32)cc1,"25.9 µM [rising, single point]",–
CCOC(=O)C1CCN(C(=O)COc2cc(C)c(Br)cc2C)CC1,"5.62 µM [falling, partial curve]",–
Cc1nn(-c2ccccc2)c(Cl)c1C(=O)OCC(=O)NCCc1ccccc1,"11.2 µM [falling, single point]",–
CC(OC(=O)/C=C/c1ccc2ccccc2n1)C(=O)Nc1ccc(S(N)(=O)=O)cc1 (stereo unspecified),"16.4 µM [falling, partial curve]",–
CCOC(=O)Cc1csc(NC(=O)Nc2cccc(OC)c2)n1,"7.08 µM [falling, full curve, poor fit]",–
O=C(CCC1CCCCC1)NCc1ccncc1,"32.6 µM [rising, single point]",–
COc1cccc(CSc2nc3n(n2)C(CC(C)C)C(C(=O)Nc2ccccc2OC)=C(C)N3)c1 (stereo unspecified),"12.6 µM [falling, single point]",–
COc1cc(OC)cc(C(=O)N[C@H](C(=O)OCC(=O)Nc2sccc2C#N)C(C)C)c1,"0.794 µM [rising, partial curve, poor fit]",–
Cc1oncc1C(=O)Nc1ccc2ccccc2c1,"12.6 µM [falling, partial curve]",–
CC(OC(=O)c1cc(=O)[nH]c2ccccc12)c1ccccc1 (stereo unspecified),"14.6 µM [falling, single point]",–
CCN(CC)C(=O)C1CCN(S(=O)(=O)c2c(C)noc2/C=C/c2cccc(C)c2)CC1,"7.08 µM [falling, full curve]",–
CCOc1ccccc1NC(=O)C(OC(=O)c1ccc(O)cc1)c1ccccc1 (stereo unspecified),"29.1 µM [falling, partial curve, poor fit]","29.1 µM [rising, partial curve, poor fit]"

SMILES,AC50 [1],AC50 [2]
CCCSC(=S)NC1CCS(=O)(=O)C1 (stereo unspecified),"14.1 µM [falling, single point]",–
Cc1nnc(-c2ccccc2)nc1N(C)C,"0.251 µM [rising, full curve, poor fit]",–
CCCOc1ccc(-c2c(=O)n(OCc3ccc([N+](=O)[O-])cc3)c3ccccc3[n+]2[O-])cc1,"32.6 µM [falling, partial curve, poor fit]",–
Cn1cc(-c2ccc(Cl)cc2)cc(C#N)c1=O,"7.08 µM [rising, partial curve, poor fit]",–
CC(=O)Nc1ccc(S(=O)(=O)N(C)CC(=O)OCC(=O)NC(C)C23CC4CC(CC(C4)C2)C3)cc1 (stereo unspecified),"25.9 µM [rising, single point]",–
COc1ccc(N(C(=O)CCl)C(C)(C(=O)Nc2c(C)cccc2C)c2ccccn2)cc1 (stereo unspecified),"25.9 µM [falling, single point]",–
CCn1cnc2sc(C(=O)N(Cc3ccc(N(C)C)cc3)Cc3ccco3)c(C)c2c1=O,"6.51 µM [rising, partial curve]",–
C[C@H](NC(=O)c1nc[nH]c1C(=O)N[C@H](C)c1ccccc1)C(=O)OCc1ccccc1,"25.1 µM [falling, single point]",–
COC(=O)c1cc(NC(=O)Nc2ccccc2)ccc1Cl,"29.1 µM [falling, single point]",–
CCN(CC)S(=O)(=O)c1ccc2oc(C(=O)NCc3ccc(C)cc3)c(C)c2c1,"16.4 µM [rising, partial curve, poor fit]",–
CCC1CCCCN1CCNC(=O)c1[nH]c(C)c(C(C)=O)c1C (stereo unspecified),"12.6 µM [falling, partial curve, poor fit]",–
CCCC(=O)c1ccc(-c2ccccc2)cc1,"7.31 µM [rising, partial curve]",–
CCCCNC(=S)N=Nc1c(O)[nH]c2ccccc12,"35.5 µM [falling, single point]","15.8 µM [falling, partial curve]"
COc1cc(OC)c(C2C(C#N)=C(N)Oc3cc(C)n(CCCN4CCOCC4)c(=O)c32)cc1OC (stereo unspecified),"10 µM [falling, partial curve]",–
Fc1ccc(NC(=S)Nc2ccc(Br)cc2)cc1,"0.92 µM [rising, full curve, poor fit]",–
COc1ccc(NC(=O)C2CCCN(S(=O)(=O)c3cccc4nonc34)C2)cc1 (stereo unspecified),"5.17 µM [falling, partial curve, poor fit]",–
CSC(=S)N/N=C/c1ccc(Br)cc1,"11.2 µM [rising, partial curve, poor fit]",–
O=C(CNC(=O)c1ccccc1F)OCc1csc(-c2ccccc2)n1,"22.4 µM [rising, partial curve, poor fit]",–
NC(=S)N/N=C/c1ccc(-c2cccc([N+](=O)[O-])c2)o1,–,"22.4 µM [falling, single point]"
COc1ccc(-c2cc(C(=O)Nc3c(C)nn(Cc4ccc(Cl)cc4)c3C)no2)cc1,"16.4 µM [rising, partial curve, poor fit]",–
